Results as given in article PMC11984302.
The exact form of at least one protein or probe is not confirmed.

Test system: thrombin (human plasma, Sigma-Aldrich) (Homo sapiens)
Assay: cited
Conditions: SICS: thrombin in 1 M KCl (or 150 mM KCl), pH 7.5, 30 min incubation, 300 mV; gel: 16% Tris-Glycine; temperature not stated; commercial protein; folded or branched DNA

## AGTCCGTGGTAGGGCAGGTTGGGGTGACT [TBA 2 (29-mer)]
  binding result: binds
